These are yes or no findings as the source states them, for the method shown. Some entries that bind do so weakly or less than the wild type.

Protein sequences, listed by entry. Tags and fused reporters are not part of them. Residues count along the entry.
UniProt Q15116, residues 25-167: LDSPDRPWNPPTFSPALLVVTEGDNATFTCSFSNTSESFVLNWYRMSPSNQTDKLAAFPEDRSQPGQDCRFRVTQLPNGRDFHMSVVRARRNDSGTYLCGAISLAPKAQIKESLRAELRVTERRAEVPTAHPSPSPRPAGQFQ

The source of these data is patent publication CN115466329A.

The target of the assay is PD-1 (ACRO) coated on the ELISA plate (UniProt Q15116). In words: ELISA, PD-1 coated at 1μg/ml, antibody at 10μg/ml. Background: An ELISA detects its analyte on a solid surface through an enzyme-linked reagent.

B1: 抗PD-1鼠单抗PD-1-76-C2 (antibody, V domains shown)
VH: QIQLVQSGPELKKPGETVKISCKASGYTFTNYGMNWVKQAPGKGLKWMGWINTHTGEPTYADDFKGRFAFSLETSASTAYLQIKNLKNEDVATYFCTKEGEGIGFAYWGQGTLVTVSA
VL: DVLMTQTPLSLPVSLGDQASISCRSSQSIVYSNGKTYLEWYLQKPGQSPKLLIYKVSNRFSGVPDRFSGSGSGTDFTLKISRVEAEDLGVYYCFQGSHVPNTFGGGTKLEIKR
With B1, the binding entry is “binds”.
